The record followed here is US9717748B2, “Compositions and methods for treating an infection” (CMPD LICENSING, LLC, priority 2015, dated 2017).

The subject of the experiment is Mycoplasma pneumoniae. In words: Expected efficacy of antibiotic agents. Conditions: Gram: n/a.

As for `O=C(O)c1cn(C2CC2)c2cc(N3CCNCC3)c(F)cc2c1=O` [Ciprofloxacin], the “Expected efficacy against Mycoplasma pneumoniae” value is listed as “yes”.
